Results as given in the supplement of paper PMC12823440, “Inhibitors supercharge kinase turnover through native proteolytic circuits” (Nature, 2025).
Structures can show the parent of a compound that is named as a salt. This is one part of the list. Hit calls seldom repeat between salt and free forms of one compound.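 In K562 cells expressing nanoluciferase-fused kinases, luminescence was recorded at 4 h intervals between 2 and 18 h, normalized as percent of control with DMSO at 100% and a positive control at 0%. A significant (2 sigma) signal drop marks a time point as decreased. The authors' rule for a hit is not shown and takes in more than the number of time points.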

Chains of the proteins cited; added tags and fusions are not shown. Lines headed by an entry give the natural chain unless they say otherwise; changes in a name come on top.
UniProt Q15118, whole entry, looked up: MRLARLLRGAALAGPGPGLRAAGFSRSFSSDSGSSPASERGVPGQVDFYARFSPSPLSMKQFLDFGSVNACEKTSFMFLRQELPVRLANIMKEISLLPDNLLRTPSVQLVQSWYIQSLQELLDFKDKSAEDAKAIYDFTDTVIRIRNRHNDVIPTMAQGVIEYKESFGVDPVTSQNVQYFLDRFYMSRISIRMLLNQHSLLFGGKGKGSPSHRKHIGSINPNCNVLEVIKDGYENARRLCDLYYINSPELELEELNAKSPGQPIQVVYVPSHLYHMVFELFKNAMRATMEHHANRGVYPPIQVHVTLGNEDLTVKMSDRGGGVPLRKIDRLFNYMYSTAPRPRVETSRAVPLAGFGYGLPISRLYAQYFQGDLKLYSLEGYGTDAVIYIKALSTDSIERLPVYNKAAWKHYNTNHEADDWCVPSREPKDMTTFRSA
UniProt P42356, whole entry, looked up: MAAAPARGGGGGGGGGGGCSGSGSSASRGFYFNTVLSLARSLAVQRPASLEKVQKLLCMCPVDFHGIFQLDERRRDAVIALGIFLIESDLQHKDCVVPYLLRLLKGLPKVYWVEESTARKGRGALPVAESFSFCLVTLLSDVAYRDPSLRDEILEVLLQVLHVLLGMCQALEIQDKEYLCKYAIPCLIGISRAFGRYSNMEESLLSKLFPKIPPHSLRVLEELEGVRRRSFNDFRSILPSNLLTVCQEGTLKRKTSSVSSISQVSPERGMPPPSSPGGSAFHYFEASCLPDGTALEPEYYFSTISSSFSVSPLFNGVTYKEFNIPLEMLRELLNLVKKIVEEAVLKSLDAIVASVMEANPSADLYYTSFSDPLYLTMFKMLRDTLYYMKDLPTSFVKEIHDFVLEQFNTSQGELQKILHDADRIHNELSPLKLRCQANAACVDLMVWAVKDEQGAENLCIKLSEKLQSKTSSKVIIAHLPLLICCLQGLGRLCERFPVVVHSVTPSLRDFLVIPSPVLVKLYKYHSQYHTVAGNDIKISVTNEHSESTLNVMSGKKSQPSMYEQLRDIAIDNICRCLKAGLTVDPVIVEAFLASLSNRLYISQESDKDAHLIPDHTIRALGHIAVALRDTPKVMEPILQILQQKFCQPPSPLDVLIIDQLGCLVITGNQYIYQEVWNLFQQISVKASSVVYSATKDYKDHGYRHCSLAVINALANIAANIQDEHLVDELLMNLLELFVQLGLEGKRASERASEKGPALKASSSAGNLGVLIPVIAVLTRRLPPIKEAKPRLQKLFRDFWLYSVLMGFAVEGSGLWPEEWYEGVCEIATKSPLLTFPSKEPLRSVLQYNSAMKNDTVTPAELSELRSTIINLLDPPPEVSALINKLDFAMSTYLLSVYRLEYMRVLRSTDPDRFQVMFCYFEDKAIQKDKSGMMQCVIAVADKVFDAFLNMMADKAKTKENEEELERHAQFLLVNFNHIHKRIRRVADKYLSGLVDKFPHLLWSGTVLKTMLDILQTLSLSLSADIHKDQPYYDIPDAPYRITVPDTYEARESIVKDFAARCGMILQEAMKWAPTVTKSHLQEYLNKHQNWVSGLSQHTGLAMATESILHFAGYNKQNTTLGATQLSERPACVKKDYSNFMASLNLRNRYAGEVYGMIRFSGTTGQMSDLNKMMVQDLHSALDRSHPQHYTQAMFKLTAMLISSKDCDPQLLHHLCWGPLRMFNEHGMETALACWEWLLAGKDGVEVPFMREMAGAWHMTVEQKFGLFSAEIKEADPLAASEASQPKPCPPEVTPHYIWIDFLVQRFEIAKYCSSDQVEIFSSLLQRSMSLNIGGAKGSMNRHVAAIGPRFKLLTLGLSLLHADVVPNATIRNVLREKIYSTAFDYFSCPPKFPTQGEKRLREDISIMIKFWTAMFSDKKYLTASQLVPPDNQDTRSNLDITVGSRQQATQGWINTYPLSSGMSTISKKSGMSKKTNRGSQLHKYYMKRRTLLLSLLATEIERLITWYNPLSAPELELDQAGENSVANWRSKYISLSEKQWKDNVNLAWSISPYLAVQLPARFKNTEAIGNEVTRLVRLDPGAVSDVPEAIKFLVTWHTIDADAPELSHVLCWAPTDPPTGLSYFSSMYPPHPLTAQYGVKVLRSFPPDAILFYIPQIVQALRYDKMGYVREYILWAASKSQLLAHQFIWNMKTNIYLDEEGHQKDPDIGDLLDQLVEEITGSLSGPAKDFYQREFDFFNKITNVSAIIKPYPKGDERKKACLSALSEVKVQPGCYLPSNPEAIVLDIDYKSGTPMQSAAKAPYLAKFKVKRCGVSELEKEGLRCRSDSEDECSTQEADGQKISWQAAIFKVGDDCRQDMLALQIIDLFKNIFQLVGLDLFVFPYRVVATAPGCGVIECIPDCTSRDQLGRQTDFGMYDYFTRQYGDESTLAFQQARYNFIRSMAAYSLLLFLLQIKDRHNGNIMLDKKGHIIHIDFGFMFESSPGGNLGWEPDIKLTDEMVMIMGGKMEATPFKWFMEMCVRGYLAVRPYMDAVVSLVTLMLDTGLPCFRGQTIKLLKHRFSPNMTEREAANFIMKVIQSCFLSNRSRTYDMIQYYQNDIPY
UniProt P53350, whole entry: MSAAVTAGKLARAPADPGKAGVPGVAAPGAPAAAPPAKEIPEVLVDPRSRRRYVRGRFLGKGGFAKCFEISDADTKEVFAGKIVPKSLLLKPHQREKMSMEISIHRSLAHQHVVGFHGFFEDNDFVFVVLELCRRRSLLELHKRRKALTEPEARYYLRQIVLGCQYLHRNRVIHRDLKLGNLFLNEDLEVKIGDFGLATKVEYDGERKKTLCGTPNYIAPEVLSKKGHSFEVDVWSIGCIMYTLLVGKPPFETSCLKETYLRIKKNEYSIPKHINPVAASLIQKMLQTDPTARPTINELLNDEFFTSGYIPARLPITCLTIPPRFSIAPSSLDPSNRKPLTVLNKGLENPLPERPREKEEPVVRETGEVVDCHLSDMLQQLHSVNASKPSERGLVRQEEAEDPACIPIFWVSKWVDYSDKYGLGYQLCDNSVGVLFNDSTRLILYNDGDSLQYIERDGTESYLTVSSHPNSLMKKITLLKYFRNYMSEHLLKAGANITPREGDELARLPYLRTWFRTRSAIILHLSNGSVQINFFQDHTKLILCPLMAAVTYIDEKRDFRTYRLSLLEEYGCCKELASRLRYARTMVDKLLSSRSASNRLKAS
UniProt Q13131: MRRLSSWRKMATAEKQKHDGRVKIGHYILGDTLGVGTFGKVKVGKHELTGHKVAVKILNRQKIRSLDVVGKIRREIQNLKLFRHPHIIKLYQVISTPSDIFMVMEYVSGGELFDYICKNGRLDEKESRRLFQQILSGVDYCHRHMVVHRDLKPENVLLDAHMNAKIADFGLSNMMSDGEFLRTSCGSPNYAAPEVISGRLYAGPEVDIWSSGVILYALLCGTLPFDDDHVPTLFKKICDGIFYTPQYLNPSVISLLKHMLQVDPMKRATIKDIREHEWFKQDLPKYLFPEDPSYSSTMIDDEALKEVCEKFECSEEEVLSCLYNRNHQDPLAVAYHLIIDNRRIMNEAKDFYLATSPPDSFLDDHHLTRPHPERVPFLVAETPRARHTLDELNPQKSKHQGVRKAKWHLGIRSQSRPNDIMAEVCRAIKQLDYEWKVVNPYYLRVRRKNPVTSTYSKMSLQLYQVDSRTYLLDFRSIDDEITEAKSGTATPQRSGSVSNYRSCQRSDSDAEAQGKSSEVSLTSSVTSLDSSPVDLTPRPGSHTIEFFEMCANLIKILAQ
UniProt Q14289, whole entry, looked up: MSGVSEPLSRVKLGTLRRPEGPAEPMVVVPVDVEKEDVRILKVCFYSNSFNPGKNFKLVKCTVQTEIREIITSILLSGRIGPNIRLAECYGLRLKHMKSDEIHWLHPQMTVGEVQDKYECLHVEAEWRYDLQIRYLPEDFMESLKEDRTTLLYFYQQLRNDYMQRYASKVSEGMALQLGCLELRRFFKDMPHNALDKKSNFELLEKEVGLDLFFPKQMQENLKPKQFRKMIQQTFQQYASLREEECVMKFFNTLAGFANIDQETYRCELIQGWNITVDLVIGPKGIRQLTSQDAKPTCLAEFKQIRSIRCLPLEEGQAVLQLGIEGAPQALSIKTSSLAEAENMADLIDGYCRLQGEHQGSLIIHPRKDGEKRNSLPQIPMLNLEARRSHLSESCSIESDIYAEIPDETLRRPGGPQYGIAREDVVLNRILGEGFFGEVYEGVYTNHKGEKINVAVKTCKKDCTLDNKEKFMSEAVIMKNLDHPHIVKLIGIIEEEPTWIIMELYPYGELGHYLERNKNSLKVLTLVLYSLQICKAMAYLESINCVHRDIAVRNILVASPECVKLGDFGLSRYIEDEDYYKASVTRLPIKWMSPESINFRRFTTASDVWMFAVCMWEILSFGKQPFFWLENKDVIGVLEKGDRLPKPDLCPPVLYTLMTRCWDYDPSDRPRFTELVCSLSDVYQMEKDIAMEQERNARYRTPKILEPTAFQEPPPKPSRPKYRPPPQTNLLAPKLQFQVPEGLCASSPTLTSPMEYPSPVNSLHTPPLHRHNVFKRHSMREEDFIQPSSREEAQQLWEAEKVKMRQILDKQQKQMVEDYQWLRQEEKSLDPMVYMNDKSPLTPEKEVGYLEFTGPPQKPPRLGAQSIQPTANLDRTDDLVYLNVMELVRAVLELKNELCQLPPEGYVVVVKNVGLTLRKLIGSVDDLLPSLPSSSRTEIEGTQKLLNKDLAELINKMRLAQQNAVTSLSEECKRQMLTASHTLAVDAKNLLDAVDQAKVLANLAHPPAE
UniProt P07949, whole entry, looked up: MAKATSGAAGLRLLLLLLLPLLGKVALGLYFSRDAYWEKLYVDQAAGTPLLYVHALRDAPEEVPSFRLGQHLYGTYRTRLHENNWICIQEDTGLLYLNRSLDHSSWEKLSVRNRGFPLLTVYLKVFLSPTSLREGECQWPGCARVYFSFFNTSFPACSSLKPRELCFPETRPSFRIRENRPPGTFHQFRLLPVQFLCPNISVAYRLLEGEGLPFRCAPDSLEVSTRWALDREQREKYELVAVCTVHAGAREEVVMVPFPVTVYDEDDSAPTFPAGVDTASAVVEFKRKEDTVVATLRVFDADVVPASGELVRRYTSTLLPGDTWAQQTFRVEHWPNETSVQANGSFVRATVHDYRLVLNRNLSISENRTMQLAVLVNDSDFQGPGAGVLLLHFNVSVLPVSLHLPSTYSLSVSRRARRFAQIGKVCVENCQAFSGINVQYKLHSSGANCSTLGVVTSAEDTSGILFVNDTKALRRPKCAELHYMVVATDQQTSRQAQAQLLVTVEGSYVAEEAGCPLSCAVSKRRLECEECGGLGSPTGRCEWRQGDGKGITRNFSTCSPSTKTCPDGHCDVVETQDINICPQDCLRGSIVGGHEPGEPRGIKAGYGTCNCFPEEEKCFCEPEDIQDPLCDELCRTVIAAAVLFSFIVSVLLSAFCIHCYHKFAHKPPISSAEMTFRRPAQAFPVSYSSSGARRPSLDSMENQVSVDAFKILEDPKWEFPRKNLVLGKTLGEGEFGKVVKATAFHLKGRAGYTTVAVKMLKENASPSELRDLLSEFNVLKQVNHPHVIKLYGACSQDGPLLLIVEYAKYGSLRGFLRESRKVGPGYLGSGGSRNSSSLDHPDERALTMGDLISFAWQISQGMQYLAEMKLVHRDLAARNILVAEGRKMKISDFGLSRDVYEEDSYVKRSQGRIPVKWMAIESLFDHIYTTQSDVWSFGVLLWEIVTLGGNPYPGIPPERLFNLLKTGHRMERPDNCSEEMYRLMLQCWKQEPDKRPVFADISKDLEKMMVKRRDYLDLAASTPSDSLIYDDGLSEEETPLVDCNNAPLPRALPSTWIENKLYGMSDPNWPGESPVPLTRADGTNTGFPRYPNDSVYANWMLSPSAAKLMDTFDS

How the values were obtained:
Assay in all cases: number of time points (of 5) at which kinase-Nluc abundance scored as decreased, DMSO-normalised (count); higher = more persistent destabilization
Settings in all cases: K562; 2-18 h
NTRK3 = NTRK3 (UniProt Q16288)
PAK4 = PAK4 (UniProt O96013)
PBK = PBK (UniProt Q96KB5)
PDGFRB = PDGFRB (UniProt P09619)
PDK1 = PDK1 (UniProt Q15118)
PDPK1 = PDPK1 (UniProt O15530)
PIK4CA = PIK4CA (UniProt P42356)
PIK4CB = PIK4CB (UniProt Q9UBF8)
PLK1 = PLK1 (UniProt P53350)
PRKAA1 = PRKAA1 (UniProt Q13131)
PRKCA = PRKCA (UniProt P17252)
PTK2 = PTK2 (UniProt Q05397)
PTK2B = PTK2B (UniProt Q14289)
RAF1 = RAF1 (UniProt P04049)
[1] = target: RAF1_S257L (clone: RAF1_mut) (UniProt P04049)
RET = RET (UniProt P07949)
[2] = target: RET_M918T (clone: RET_mut) (UniProt P07949)
RIOK1 = RIOK1 (UniProt Q9BRS2)
RIPK1 = RIPK1 (UniProt Q13546)
RIPK2 = RIPK2 (UniProt O43353)

Row | SMILES | number of time points (NTRK3) | number of time points (PAK4) | number of time points (PBK) | number of time points (PDGFRB) | number of time points (PDK1) | number of time points (PDPK1) | number of time points (PIK4CA) | number of time points (PIK4CB) | number of time points (PLK1) | number of time points (PRKAA1) | number of time points (PRKCA) | number of time points (PTK2) | number of time points (PTK2B) | number of time points (RAF1) | number of time points [1] | number of time points (RET) | number of time points [2] | number of time points (RIOK1) | number of time points (RIPK1) | number of time points (RIPK2)
1 | O=C(CC(c1ccccc1)C(C(=O)O)C(=O)O)c1ccc(C(F)(F)F)cc1 (stereo not given) (10 µM) | 0 | 0 | 0 | 0 | 0 | 0 | 0 | 0 | 0 | 0 | 0 | 0 | 0 | 0 | 0 | 0 | 0 | 0 | 0 | 0
2 | COc1cc(OC)c(/C=C/S(=O)(=O)Cc2ccc(OC)c(NCC(=O)O)c2)c(OC)c1 [Rigosertib (sodium)] (10 µM) | 3 | 0 | 0 | 2 | 0 | 4 | 0 | 0 | 0 | 1 | 0 | 0 | 0 | 2 | 1 | 0 | 0 | 0 | 0 | 1
3 | CNCCOc1ccccc1C(C)(C)Nc1nccn(-c2cc(C(=O)NC3CC3)ccc2C)c1=O [p38α inhibitor 2] (10 µM) | 0 | 0 | 0 | 0 | 0 | 0 | 0 | 0 | 0 | 0 | 2 | 0 | 0 | 0 | 0 | 0 | 0 | 0 | 0 | 0
4 | C=CC(=O)N1CCN(c2nc(OC[C@@H]3CCCN3C)nc3c2CCN(c2cccc4cccc(C)c24)C3)C[C@@H]1CC#N (2.5 µM) | 0 | 0 | 0 | 0 | 0 | 0 | 0 | 0 | 0 | 0 | 0 | 0 | 0 | 0 | 0 | 0 | 0 | 0 | 0 | 0
5 | Cc1nc(NC(=O)N2CCC[C@H]2C(N)=O)sc1-c1csc(C(C)(C)C)n1 (10 µM) | 0 | 0 | 0 | 0 | 0 | 0 | 0 | 0 | 0 | 0 | 0 | 0 | 0 | 0 | 0 | 0 | 0 | 0 | 0 | 0
6 | Cc1ccc(CNC(=O)N2CCC[C@]3(CCN(Cc4ccc(Cl)c(Cl)c4)C3)C2)cc1 (10 µM) | 0 | 0 | 0 | 0 | 0 | 0 | 0 | 0 | 0 | 0 | 0 | 0 | 0 | 0 | 0 | 0 | 0 | 0 | 0 | 0
7 | C[C@@H]1CN(Cc2cn[nH]c2-c2ccc(C#N)cc2)CCN1c1ccc(C(F)(F)F)cn1 (2.5 µM) | 0 | 0 | 0 | 0 | 0 | 0 | 0 | 0 | 0 | 0 | 0 | 0 | 0 | 0 | 0 | 0 | 0 | 0 | 0 | 0
8 | NC(=O)c1ccc2nc(-c3ccc(C4(N)CCC4)cc3)c(-c3ccccc3)n2n1 (10 µM) | 0 | 0 | 0 | 0 | 0 | 0 | 0 | 0 | 0 | 0 | 0 | 0 | 0 | 0 | 0 | 0 | 0 | 0 | 0 | 0
9 | Cc1ccc(-c2csc(Cn3nc(CC4OCCCO4)c4ccccc4c3=O)n2)cc1 (10 µM) | 0 | 0 | 0 | 0 | 0 | 0 | 0 | 0 | 0 | 0 | 0 | 0 | 0 | 0 | 0 | 0 | 0 | 0 | 0 | 0
10 | CCOC(=O)C1=C[C@]2(CC)CCCN3CCc4c(n1c1ccccc41)[C@@H]32 [Vinpocetine] (10 µM) | 0 | 0 | 0 | 0 | 0 | 0 | 0 | 0 | 0 | 0 | 0 | 0 | 0 | 0 | 0 | 0 | 0 | 0 | 0 | 0
11 | COC(=O)[C@]1(C)CC[C@]2(C(=O)O[C@@H]3O[C@H](CO)[C@@H](O)[C@H](O)[C@H]3O)CC[C@]3(C)C(=CC[C@@H]4[C@@]5(C)C[C@H](O)[C@H](O[C@@H]6OC[C@@H](O[C@@H]7O[C@H](CO)[C@@H](O)[C@H](O)[C@H]7O)[C@H](O)[C@H]6O)[C@@](C)(CO)C5CC[C@]43C)[C@H]2C1 (stereo not given in full) [Esculentoside H] (10 µM) | 0 | 0 | 0 | 0 | 0 | 0 | 0 | 0 | 0 | 0 | 0 | 0 | 1 | 0 | 0 | 0 | 0 | 0 | 0 | 0
12 | CC(=O)c1cc(O)ccc1O [2,5-Dihydroxyacetophenone] (10 µM) | 0 | 0 | 0 | 0 | 0 | 0 | 0 | 0 | 0 | 0 | 0 | 0 | 0 | 0 | 0 | 0 | 0 | 0 | 0 | 0
13 | N#C/C(=C\c1ccc[nH]1)c1ccc(Cl)c(Cl)c1 (2.5 µM) | 0 | 0 | 0 | 0 | 0 | 0 | 0 | 0 | 0 | 0 | 0 | 0 | 0 | 0 | 0 | 0 | 0 | 0 | 0 | 0
14 | CC(C)[C@H](CO)Nc1nc(Nc2ccc(C(=O)O)c(Cl)c2)c2ncn(C(C)C)c2n1 [Purvalanol B] (10 µM) | 0 | 0 | 0 | 0 | 0 | 0 | 0 | 0 | 0 | 0 | 0 | 0 | 0 | 0 | 0 | 0 | 0 | 0 | 0 | 0
15 | O=C1NC(=O)C(c2ccccc2[N+](=O)[O-])=C1Nc1ccc(O)c(Cl)c1 (10 µM) | 0 | 0 | 0 | 0 | 0 | 0 | 0 | 0 | 0 | 0 | 0 | 0 | 0 | 0 | 0 | 0 | 0 | 0 | 0 | 0
16 | CCC(=O)N1CC[C@H](Nc2ncnc3c2CN(c2cnc(OC)c(C(F)(F)F)c2)CC3)C1 [Leniolisib] (10 µM) | 0 | 0 | 0 | 0 | 0 | 0 | 0 | 0 | 0 | 0 | 0 | 0 | 0 | 0 | 0 | 0 | 0 | 0 | 0 | 0
17 | NC(=O)c1nc(-c2c(F)cccc2Cl)oc1Nc1ccc(C(=O)N2CCOCC2)cc1 (10 µM) | 0 | 0 | 0 | 0 | 0 | 0 | 0 | 0 | 0 | 0 | 0 | 0 | 0 | 0 | 0 | 0 | 0 | 0 | 0 | 0
18 | Cc1ccc(-n2c(-c3ccc(O)cc3O)n[nH]c2=O)cc1 (10 µM) | 4 | 0 | 0 | 3 | 0 | 4 | 4 | 1 | 0 | 0 | 0 | 2 | 0 | 3 | 5 | 0 | 0 | 0 | 3 | 3
19 | Cc1cccc(-c2[nH]c(C(C)(C)C)nc2-c2ccc3c(c2)OCO3)n1 (2.5 µM) | 0 | 0 | 0 | 0 | 0 | 0 | 0 | 0 | 0 | 0 | 0 | 0 | 0 | 0 | 0 | 0 | 0 | 0 | 0 | 0
20 | O=c1sn(-c2cccc3ccccc23)c(=O)n1Cc1ccccc1 [Tideglusib] (10 µM) | 0 | 0 | 0 | 0 | 0 | 0 | 0 | 0 | 0 | 0 | 0 | 0 | 0 | 0 | 0 | 0 | 0 | 0 | 0 | 0
21 | Cn1cc(-c2cn3nccc3c(-c3cnn([C@]4(CC#N)C[C@@H](C#N)C4)c3)n2)cn1 (10 µM) | 0 | 0 | 0 | 0 | 0 | 0 | 0 | 0 | 0 | 0 | 0 | 0 | 0 | 0 | 0 | 0 | 0 | 0 | 0 | 0
22 | CC(C)n1nc(C#Cc2ccccc2)c2c(N)ncnc21 (10 µM) | 0 | 0 | 0 | 0 | 0 | 3 | 0 | 1 | 1 | 2 | 0 | 3 | 0 | 4 | 2 | 0 | 0 | 0 | 4 | 3
23 | COc1c(OCCCN2CCOCC2)ccc2c3n(c(=NC(=O)c4cnc(N)nc4)nc12)CCN3 [Copanlisib (dihydrochloride)] (10 µM) | 3 | 0 | 0 | 0 | 0 | 4 | 4 | 3 | 3 | 2 | 0 | 3 | 0 | 3 | 4 | 4 | 4 | 2 | 3 | 3

Limited to number of time points (PDGFRB) and number of time points (PRKAA1), for some of the entries so far:
Row | SMILES | number of time points (PDGFRB) | number of time points (PRKAA1)
12 | CC(=O)c1cc(O)ccc1O [2,5-Dihydroxyacetophenone] (10 µM) | 0 | 0
20 | O=c1sn(-c2cccc3ccccc23)c(=O)n1Cc1ccccc1 [Tideglusib] (10 µM) | 0 | 0
